In all, about 330,000 compounds went through this assay and about 7,700 (2.3%) were called active. This list was built around the results that the source calls inconclusive (neither active nor inactive); the mix of calls is not that of the screen. Calls follow the shape of the dose curve; as a rule, active = well fitted inhibition curve with a large enough effect; inconclusive = small, poorly fitted or top-dose-only effect, or effect the other way; inactive = flat fitted curve, though single readings scatter. Potencies of inconclusive entries are doubtful fits and often do not repeat.
Experiment: qHTS screen for small molecules that inhibit ELG1-dependent DNA repair in human embryonic kidney (HEK293T) cells expressing luciferase-tagged ELG1; also: nearly all actives have a fitted effect of over 55% in size
Details: HEK293T ELG1-luciferase reporter, luminescence, 16 h, DNA damage induced by 5-fluorouridine; series mostly up to 46.1 µM
Method in brief: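 Luminescence from the luciferase reporter, measured 30 min after ONE-Glo reagent at room temperature, was the read-out. Beforehand, 2,000 cells per well were exposed for 16 hr at 37 °C to 5-fluorouridine together with compound or vehicle.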
Potency is read from the fitted curve at half-maximal effect.

Compound	Potency
Cc1sc2nc(SCC(=O)Nc3c(C)n(C)n(-c4ccccc4)c3=O)n(C)c(=O)c2c1C	inconclusive: 13 µM [inhibitor, partial curve, poor fit]
CN(CC(O)Cn1cnc2c1c(=O)n(C)c(=O)n2C)c1ccccc1 (stereo not drawn)	inactive
COc1ccc(CNC(NC(=O)c2ccccc2)(C(F)(F)F)C(F)(F)F)cc1	inactive
CC(C)CC(=O)Nc1ccc(Oc2ccc3c(c2)C(=O)NC3=O)cc1	inactive
O=C1NC2=C(CCc3ccccc32)C(c2ccccc2)N1 (stereo not drawn)	inactive
Cc1cc(C)n(CCc2nc(-c3cccs3)cs2)n1	inconclusive: 18.4 µM [activator, single point]
C=CCNC(=O)/C(C#N)=C/c1cn(-c2ccccc2)nc1-c1ccc(OC)c([N+](=O)[O-])c1	inconclusive: 2.59 µM [inhibitor, full curve]
CN(CCC(=O)Nc1ccc(Br)cc1)Cc1ccccc1	inactive
CC1Sc2ccc(S(=O)(=O)CCC(=O)N3CCN(c4ccccc4F)CC3)cc2NC1=O (stereo not drawn)	inconclusive: 18.3 µM [inhibitor, single point]
CCOC(=O)NC(=O)c1cn(-c2ccc(OC)cc2)c(=O)[nH]c1=O	inactive
CCCOc1cccc(-c2cc(C(=O)NN)c3ccccc3n2)c1	inactive
COC(=O)Cc1c(O)ccn(Cc2ccc(Cl)c(Cl)c2)c1=O	inconclusive: 20.6 µM [inhibitor, single point]
COc1cccc(C2CC(=O)N3CN(c4ccccc4F)CSC3=C2C#N)c1 (stereo not drawn)	inactive
CN1C2CCC1CC(NC(=O)c1ccc([N+](=O)[O-])cc1)C2 (stereo not drawn)	inactive
COc1ccccc1NS(=O)(=O)c1cc(NC(=S)Nc2cc(C)cc(C)c2)ccc1Cl	inconclusive: 16.4 µM [inhibitor, single point]
CCCCNC(=O)CCn1nc(-c2ccc(Cl)cc2)c2ccccc2c1=O	inconclusive: 14.6 µM [inhibitor, partial curve]
Cc1ccc2nc3c(cc(C(=O)NC4CCS(=O)(=O)C4)n3Cc3ccccc3)c(=O)n2c1 (stereo not drawn)	inconclusive: 13 µM [inhibitor, partial curve]
c1ccc(COc2ccc(CNCc3cccnc3)cc2)cc1	inactive
CC(Sc1nnc2ccccn12)C(=O)Nc1ccc(N2CCOCC2)cc1 (stereo not drawn)	inconclusive: 20.6 µM [activator, single point]
O=C(Nc1cccc2cccnc12)c1ccc2c(c1)OCCO2	inconclusive: 18.4 µM [activator, partial curve]
COc1ccccc1/C=C/C=N/NC(=O)c1ccccn1	inconclusive: 4.11 µM [activator, full curve]
NS(=O)(=O)c1ccc(NC(=S)Nc2nn(Cc3ccc(Cl)cc3Cl)cc2Cl)cc1	inconclusive: 23.1 µM [inhibitor, single point]
CCO[C@H]1OC(C(=O)N2CCN(Cc3ccc4c(c3)OCO4)CC2)=C[C@@H](c2cn(C(C)=O)c3ccccc23)[C@@H]1CCCO	active: 10.3 µM

Compound	Potency
COc1ccc(N2CCN(CCS(=O)(=O)c3cc(Cl)ccc3Cl)CC2)cc1	inactive
Cc1ccc(C)c(N(C)S(=O)(=O)c2ccc3[nH]cc(C(=O)NCCN4CCOCC4)c(=O)c3c2)c1	inactive
N#Cc1ccccc1COC(=O)c1cccc(S(=O)(=O)N2CCCC2)c1	inactive
COc1cccc(C(=O)OCc2ccccc2C#N)c1O	inconclusive: 20.6 µM [activator, single point]
S=c1[nH]nc(-c2cc(-c3ccccc3)n[nH]2)n1/N=C/c1ccc(Br)s1	inconclusive: 2.31 µM [activator, partial curve, poor fit]
O=[n+]1c2c(n([O-])c3cc(F)c(N4CCCC4)cc31)CCCC2	inconclusive: 10.3 µM [activator, single point]
Cc1ccc(C2CCN(C(=S)NC(C)(C)C)C2)cc1 (stereo not drawn)	inconclusive: 6.51 µM [activator, partial curve]
CCN(CC)S(=O)(=O)c1ccc(Cc2ncc(C(F)(F)F)cc2Cl)s1	inconclusive: 16.4 µM [inhibitor, single point]
CC(NC(=O)COC(=O)c1c[nH]c2ccccc12)c1ccccc1 (stereo not drawn)	inconclusive: 0.116 µM [inhibitor, partial curve, poor fit]
CCC(CO)NCc1ccc(OCC(O)c2ccccc2)c(OC)c1 (stereo not drawn)	inactive
CC1CN(S(=O)(=O)c2ccc(C(=O)NC3CCCCC3)cc2)CC(C)O1 (stereo not drawn)	inconclusive: 11.6 µM [inhibitor, partial curve]
COC(=O)C(C)n1cnc2c(cnn2-c2ccc(Cl)cc2)c1=O (stereo not drawn)	inconclusive: 4.61 µM [activator, partial curve, poor fit]
CCOC(=O)N1CCN(CC(=O)c2ccc(O)c(C)c2O)CC1	inconclusive: 23.1 µM [activator, partial curve, poor fit]
CCOc1ccccc1N(CC(=O)N/N=C/c1cc(Br)ccc1OC)S(C)(=O)=O	inconclusive: 18.4 µM [inhibitor, partial curve, poor fit]
O=C(Cc1nc(=O)c2ccccc2s1)Nc1ccccc1	inconclusive: 0.92 µM [activator, partial curve]
COc1cc(C2=NOC(C(=O)Nc3ccc(C)cc3)C2)cc(OC)c1OC (stereo not drawn)	inconclusive: 25.9 µM [inhibitor, single point]
COc1ccc2[nH]cc(CCNC(=O)C3CC(=O)N(c4ccc(Cl)cc4)C3)c2c1 (stereo not drawn)	inconclusive: 13 µM [inhibitor, partial curve]
Cc1noc(C)c1CSCC(=O)Nc1cc(S(=O)(=O)N2CCCCC2)ccc1OC(C)C	inconclusive: 25.9 µM [inhibitor, partial curve, poor fit]
CN(CC(=O)NCCc1ccc(F)cc1)Cc1cccs1	inconclusive: 20.6 µM [activator, partial curve, poor fit]
CCCCn1c(N)c(N(CCOC)C(=O)C(C)N2C(=O)c3ccccc3C2=O)c(=O)[nH]c1=O (stereo not drawn)	inactive
CCOC(=O)c1ccc(NC(=O)C2CCCO2)cc1 (stereo not drawn)	inconclusive: 11.6 µM [activator, partial curve]
COc1ccc(-n2c(CN3CCN(c4ccccc4)CC3)nc3ccc([N+](=O)[O-])cc3c2=O)c(OC)c1	inactive
Nc1ccc(SC(F)(F)F)cc1C(=O)c1ccccc1	inactive

Part of the list above, bar-delimited.
Compound | Potency
CCOC(=O)NC(=O)c1cn(-c2ccc(OC)cc2)c(=O)[nH]c1=O | inactive
c1ccc(COc2ccc(CNCc3cccnc3)cc2)cc1 | inactive
COc1ccc(N2CCN(CCS(=O)(=O)c3cc(Cl)ccc3Cl)CC2)cc1 | inactive
CC1CN(S(=O)(=O)c2ccc(C(=O)NC3CCCCC3)cc2)CC(C)O1 (stereo not drawn) | inconclusive: 11.6 µM [inhibitor, partial curve]
O=C(Cc1nc(=O)c2ccccc2s1)Nc1ccccc1 | inconclusive: 0.92 µM [activator, partial curve]

Continuation.

Compound	Potency
COc1ccc(NC(=O)CN(C)CC(=O)Nc2ccccc2SC)cc1Cl	inconclusive: 29.1 µM [inhibitor, single point]
O=c1cc(CSc2nnc(Nc3ccccc3F)s2)nc2sccn12	inactive
Cn1cc(CCC(=O)N2CCCC(Nc3ccc(F)cc3)C2)cn1 (stereo not drawn)	inactive
Cc1ccc(S(=O)(=O)Nc2cc(-c3nn(C)c(=O)c4ccccc34)ccc2N2CCOCC2)cc1	inconclusive: 18.4 µM [activator, partial curve, poor fit]
COC(Cn1c2c(c3cc(C)ccc31)CCCC2NCc1ccccc1)OC (stereo not drawn)	inconclusive: 29.1 µM [inhibitor, single point]
COc1ccc(Cl)cc1NC(=O)CN(C)CC(=O)Nc1ccccc1C(F)(F)F	inconclusive: 20.6 µM [inhibitor, partial curve]
Cc1cc(C(=O)N2CCCC(N3CCN(c4cccc(Cl)c4)CC3)C2)nn1C (stereo not drawn)	inactive
CCn1c(CNC(=O)COc2ccc(C(C)C)cc2)nnc1SCC(=O)Nc1ccccc1C(C)C	inconclusive: 18.4 µM [inhibitor, single point]
O=C(CCCC(=O)N1CCCC1)N1CCCC1	inconclusive: 29.1 µM [activator, partial curve, poor fit]
COc1ccc(NS(=O)(=O)c2cccc(NC(=O)C34CCC(CC3)C4)c2)cc1	inconclusive: 1.46 µM [inhibitor, full curve]
O=C(CSc1nc(-c2cccs2)cc(C(F)(F)F)n1)Nc1cc(OCC(F)(F)C(F)F)cc([N+](=O)[O-])c1	inconclusive: 25.9 µM [inhibitor, single point]
COc1cc(F)c(C2=CC(=O)CC(C)(C)C2)cc1F	inconclusive: 29.1 µM [activator, single point]
O=c1[nH]c(=O)n(Cc2ccco2)c2c1C(C(F)(F)F)(C(F)(F)F)N=C(Cc1ccccc1)N2	inconclusive: 14.1 µM [inhibitor, partial curve, poor fit]
OCCNc1nc(Nc2cccc(O)c2)nc2ccccc12	inconclusive: 10.3 µM [inhibitor, partial curve, poor fit]
Cc1nnc(C)c2c(C)n(C(C)c3ccccc3)c(C)c12 (stereo not drawn)	inactive
Cc1nn(-c2ccccc2)nc1CNC(=O)C1CC1	inconclusive: 16.4 µM [activator, single point]
CC(=O)n1c2c(c3ccccc31)OC(N)=C(C#N)C2c1ccc(C(C)C)cc1 (stereo not drawn)	inconclusive: 12.6 µM [activator, partial curve, poor fit]
CCOc1cc(/C=N/NC(=O)c2cc3c(ccc4ccccc43)o2)ccc1O	inconclusive: 18.3 µM [inhibitor, single point]
Cc1ccc(C2=NC(C)(C)N=C2SCC(=O)Nc2ccc(Cl)cc2)cc1	inconclusive: 29.1 µM [inhibitor, single point]
O=C1[C@H]2[C@@H](c3ccc(F)cc3)N3C(=O)N(c4cccc(Cl)c4)C(=O)[C@@]3(Cc3ccccc3)[C@H]2C(=O)N1C1CCCCC1	inactive
COc1ccc(C(=O)CC(=O)C(=O)NCCc2cccc(C)c2)cc1	inactive
CC1(C)Cc2c(sc(NC(=O)c3ccco3)c2C#N)CO1	inconclusive: 2.06 µM [activator, full curve]

3 structures already listed, arranged by SMILES length, low to high:
Compound	Potency
Cc1nn(-c2ccccc2)nc1CNC(=O)C1CC1	inconclusive: 16.4 µM [activator, single point]
CCN(CC)S(=O)(=O)c1ccc(Cc2ncc(C(F)(F)F)cc2Cl)s1	inconclusive: 16.4 µM [inhibitor, single point]
S=c1[nH]nc(-c2cc(-c3ccccc3)n[nH]2)n1/N=C/c1ccc(Br)s1	inconclusive: 2.31 µM [activator, partial curve, poor fit]

— PubChem BioAssay AID504467 (National Center for Advancing Translational Sciences (NCATS), 2011)
